{
  "sequences": {"note": "By UniProt entry, the sequences of proteins in these tests, tags left out. Where a name states a change or a piece, a line headed by the entry shows the natural chain unless it says otherwise.", "UniProt Q9Y6C2, whole entry": "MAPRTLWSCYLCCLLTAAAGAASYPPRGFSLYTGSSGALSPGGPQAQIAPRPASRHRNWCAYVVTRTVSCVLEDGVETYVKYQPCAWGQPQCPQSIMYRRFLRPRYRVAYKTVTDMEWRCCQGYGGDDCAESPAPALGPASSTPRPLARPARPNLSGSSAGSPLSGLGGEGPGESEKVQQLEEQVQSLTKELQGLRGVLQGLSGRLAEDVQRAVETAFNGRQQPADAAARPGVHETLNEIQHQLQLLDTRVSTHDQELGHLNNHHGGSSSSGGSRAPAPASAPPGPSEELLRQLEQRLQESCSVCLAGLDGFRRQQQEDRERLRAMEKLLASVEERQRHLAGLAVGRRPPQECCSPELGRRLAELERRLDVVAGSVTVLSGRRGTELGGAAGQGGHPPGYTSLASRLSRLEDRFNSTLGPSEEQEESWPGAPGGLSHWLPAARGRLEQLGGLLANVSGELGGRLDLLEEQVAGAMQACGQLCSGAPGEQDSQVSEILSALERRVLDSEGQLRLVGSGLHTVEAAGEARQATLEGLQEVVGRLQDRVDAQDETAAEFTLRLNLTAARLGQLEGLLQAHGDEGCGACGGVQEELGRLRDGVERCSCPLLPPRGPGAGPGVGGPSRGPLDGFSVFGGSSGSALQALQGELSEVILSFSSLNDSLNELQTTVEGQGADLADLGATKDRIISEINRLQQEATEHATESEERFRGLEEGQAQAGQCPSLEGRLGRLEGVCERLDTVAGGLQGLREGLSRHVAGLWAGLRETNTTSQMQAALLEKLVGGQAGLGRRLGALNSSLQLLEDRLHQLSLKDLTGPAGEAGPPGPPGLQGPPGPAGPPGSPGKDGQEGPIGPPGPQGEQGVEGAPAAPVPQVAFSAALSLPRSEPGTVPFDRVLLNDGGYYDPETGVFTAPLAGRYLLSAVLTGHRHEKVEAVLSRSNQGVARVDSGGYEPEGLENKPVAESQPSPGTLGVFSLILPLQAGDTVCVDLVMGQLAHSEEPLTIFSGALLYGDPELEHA"},
  "source": "paper doi:10.1101/2022.12.11.519953",
  "assay_in_all_cases": "two-hybrid",
  "key": {"[1]": {"biological_target": "NF2 (Neurofibromine 2, merlin) isoform 7 (human) (UniProt P35240)"}, "[2]": {"biological_target": "NF2 (Neurofibromine 2, merlin) isoform 7 (human) (UniProt P35240)", "remark": "listed apart in the source"}, "[3]": {"biological_target": "NF2 isoform 7 with an exon 17 derived C-terminus (human) (UniProt P35240)"}, "[4]": {"biological_target": "NF2 (Neurofibromine 2, merlin) isoform 7 (human) (UniProt P35240)", "remark": "listed apart in the source"}, "[5]": {"biological_target": "phosphoinositide-3-kinase regulatory subunit 3 (UniProt Q92569)"}, "[6]": {"biological_target": "NF2 isoform 7 with an exon 17 derived C-terminus (human) (UniProt P35240)", "remark": "listed apart in the source"}, "[7]": {"biological_target": "N-terminal half of NF2 isoform 7 (AA 1-K249) (human) (UniProt P35240)"}, "[8]": {"biological_target": "NF2 (Neurofibromine 2, merlin) isoform 1 (human) (UniProt P35240)"}, "[9]": {"biological_target": "elastin microfibril interfacer 1 protein (UniProt Q9Y6C2)"}, "[10]": {"biological_target": "NF2 isoform 1 S518D (human) (UniProt P35240)"}, "[11]": {"biological_target": "NF2 (Neurofibromine 2, merlin) isoform 7 (human) (UniProt P35240)", "remark": "listed apart in the source"}, "[12]": {"biological_target": "NF2 isoform 1 S265L (human) (UniProt P35240)"}},
  "note": "Like-named read-outs stand apart in the source and are kept apart here. No constants are given. Whether binding was seen depends on the method and setting. Some binding calls cover weakened binding; strength is not graded here.",
  "data": [
    {"substance": "phosphoinositide-3-kinase regulatory subunit 3 (from UniProt Q92569 1-461)", "values": [
      {"measurement": "binding", "setting": "[1]", "value": "binds"},
      {"measurement": "binding", "setting": "[2]", "value": "binds"},
      {"measurement": "binding", "setting": "[3]", "value": "binds weakly"},
      {"measurement": "binding", "setting": "[4]", "value": "binds"},
      {"measurement": "binding", "setting": "[5]", "value": "binds"},
      {"measurement": "binding", "setting": "[6]", "value": "binds"},
      {"measurement": "binding", "setting": "[7]", "value": "binds"},
      {"measurement": "binding", "setting": "[8]", "value": "no binding"}
    ]},
    {"substance": "N-terminal half of NF2 isoform 7 (AA 1-K249) (from UniProt P35240-4 1-249) (domain or fragment)", "values": [
      {"measurement": "binding", "setting": "[4]", "value": "no binding"},
      {"measurement": "binding", "setting": "[8]", "value": "no binding"}
    ]},
    {"substance": "C-terminal half of NF2 isoform 1 (AA M308-595) (from UniProt P35240-1 308-595) (domain or fragment)", "values": [
      {"measurement": "binding", "setting": "[1]", "value": "binds"},
      {"measurement": "binding", "setting": "[2]", "value": "binds"},
      {"measurement": "binding", "setting": "[4]", "value": "binds"},
      {"measurement": "binding", "setting": "[9]", "value": "binds"},
      {"measurement": "binding", "setting": "[6]", "value": "binds"},
      {"measurement": "binding", "setting": "[7]", "value": "no binding"},
      {"measurement": "binding", "setting": "[8]", "value": "no binding"}
    ]},
    {"substance": "N-terminal half of NF2 isoform 1 (AA 1-K332) (from UniProt P35240-1 1-332) (domain or fragment)", "values": [
      {"measurement": "binding", "setting": "[4]", "value": "no binding"},
      {"measurement": "binding", "setting": "[8]", "value": "no binding"}
    ]},
    {"substance": "C-terminal half of NF2 isoform 7 (AA M225-507) (from UniProt P35240-4 225-507) (domain or fragment)", "values": [
      {"measurement": "binding", "setting": "[4]", "value": "binds"},
      {"measurement": "binding", "setting": "[9]", "value": "binds"},
      {"measurement": "binding", "setting": "[6]", "value": "binds"},
      {"measurement": "binding", "setting": "[7]", "value": "no binding"},
      {"measurement": "binding", "setting": "[8]", "value": "no binding"}
    ]},
    {"substance": "elastin microfibril interfacer 1 protein (from UniProt Q9Y6C2 1-1016)", "values": [
      {"measurement": "binding", "setting": "[2]", "value": "binds"},
      {"measurement": "binding", "setting": "[4]", "value": "binds"},
      {"measurement": "binding", "setting": "[9]", "value": "binds"},
      {"measurement": "binding", "setting": "[10]", "value": "binds weakly"},
      {"measurement": "binding", "setting": "[6]", "value": "binds"},
      {"measurement": "binding", "setting": "[8]", "value": "no binding"},
      {"measurement": "binding", "setting": "[11]", "value": "binds"},
      {"measurement": "binding", "setting": "[12]", "value": "binds"}
    ]}
  ]
}
